This assay has as its system L1210 leukemia ip in BDF1 mice, survival T/C. Put plainly: NCI In Vivo Anticancer Drug Screen. Data for tumor model L1210 Leukemia (intraperitoneal) in B6D2F1 (BDF1) mice. Particulars: T/C endpoint: mean survival time, higher T/C = longer survival.
Setting [1] is: dose: 50.0 mg/kg/injection, schedule: Q01DX001 (ip), vehicle: saline.
Setting [2] is: dose: 100.0 mg/kg/injection, schedule: Q01DX001 (ip), vehicle: saline.
The mark [3] stands for this setting: dose: 200.0 mg/kg/injection, schedule: Q01DX001 (ip), vehicle: saline.
The mark [4] stands for this setting: dose: 400.0 mg/kg/injection, schedule: Q01DX001 (ip), vehicle: saline.
Setting [5] is: dose: 400.0 mg/kg/injection, schedule: Q01DX009 (ip), vehicle: saline.
Setting [6] is: dose: 100.0 mg/kg/injection, schedule: Q01DX001 (ip), vehicle: saline with Tween-80.
The mark [7] stands for this setting: dose: 200.0 mg/kg/injection, schedule: Q01DX001 (ip), vehicle: saline with Tween-80.
Setting [8] is: dose: 400.0 mg/kg/injection, schedule: Q01DX001 (ip), vehicle: saline with Tween-80.
The mark [9] stands for this setting: dose: 400.0 mg/kg/injection, schedule: Q01DX001 (ip), vehicle: other.
Setting [10] is: dose: 200.0 mg/kg/injection, schedule: Q01DX009 (ip), vehicle: saline with Tween-80.
Setting [11] is: dose: 80.0 mg/kg/injection, schedule: Q01DX001 (ip), vehicle: saline.
[12] abbreviates: dose: 40.0 mg/kg/injection, schedule: Q01DX001 (ip), vehicle: saline.

The list is a part of this screen's results and no random one: it gathers tests that were run many times, whatever their T/C, doses with no T/C, and many T/C values between a quarter and a half above the control. Other doses and runs of a compound stand elsewhere. T/C is the treated group as % of the vehicle group. Some entries give survivors of the animals treated and no T/C: the source files T/C as zero there, which appears to mark a toxic dose or a test without result, not a measured value. Some survivor counts are full or nearly so, which does not show that the dose was tolerated: survival well below the control is almost never listed, so the zero probably covers shortened survival too. Counts of survivors are from the toxicity check (mostly the fifth day) where no day follows; animals may have died later. Schedule codes are those of the source, taken here to give the interval after Q, in days (D) or hours (H), and the number of doses after X. Some molecules as drawn cover several salts, stereoisomers or complexes of the source; a dose is that of the sample tested. For survival time, the PubChem record calls one and a half times the control and up active, and a quarter to a half above the control has no call in these data; cut-offs in other NCI protocols can differ. Some schedule codes hold Z or #, which are not explained here. Some T/C values carry the count of animals alive at the toxicity check (mostly the fifth day); where none is given, no animal had died by that day. Some entries hold several experiments; their values stand side by side, smallest first.

In the case of `CC(=O)NC1=C(Nc2ccc(-c3ccc(NC4=C(NC(C)=O)C(=O)c5ccccc5C4=O)cc3)cc2)C(=O)c2ccccc2C1=O`, the survivor count by setting is: (dose: 18.0 mg/kg/injection, schedule: Q01DX009 (ip), vehicle: saline) 0 of 6; (dose: 25.0 mg/kg/injection, schedule: Q01DX001 (ip), vehicle: saline) 1 of 6; (dose: 28.0 mg/kg/injection, schedule: Q04DX003 (ip), vehicle: saline) 0 of 6; (dose: 42.0 mg/kg/injection, schedule: Q04DX003 (ip), vehicle: saline) 0 of 6; under setting [1], 0 of 6; under setting [2], 0 of 6. In addition, the survivor count is, setting by setting: under setting [3], 0 of 6; under setting [4], 0 of 6.

For the compound `CC(=O)Nc1ccccc1N`, the T/C under setting [5] is 130 [5 of 6 alive] and 138 % of control.

On to `Nc1nc2ccc(CNc3ccc(C(=O)NC(CCC(=O)O)C(=O)O)cc3)nc2c(=O)[nH]1` (stereo not given), for which the T/C under setting [6] was 133 % of control. In addition, the survivor count by setting is: under setting [7], 6 of 6; under setting [8], 6 of 6.

For the compound `O=C(CCl)NCc1ccc(Cl)cc1`, under setting [9], the survivor count is on record as 2 of 4.

In the case of `CC(=O)/C=C/c1ccco1`, the survivor count is 3 of 6 (dose: 100.0 mg/kg/injection, schedule: Q04DX003 (ip), vehicle: DMSO); 0 of 6 (dose: 200.0 mg/kg/injection, schedule: Q04DX003 (ip), vehicle: DMSO); 0 of 6 (dose: 400.0 mg/kg/injection, schedule: Q04DX003 (ip), vehicle: DMSO).

Turning to `N=C(N)Sc1n[nH]c(=O)[nH]c1=O`, the survivor count (dose: 300.0 mg/kg/injection, schedule: Q01DX001 (ip), vehicle: alcohol) was 0 of 6.

`O=C(c1ccccc1)c1cc(Cl)ccc1NC(=O)C(Cl)(Cl)Cl`: the survivor count reads like this: under setting [6], 6 of 6; under setting [7], 6 of 6; under setting [8], 6 of 6.

As for `Nc1ncnc2c1ncn2C1OC(CO)C(N)C1O` (stereo not given), under “dose: 4.5 mg/kg/injection, schedule: Q01DX Z (ip), vehicle: carboxymethylcellulose (CMC)”, the T/C was 133 % of control [4 of 6 alive].

Take `CCCCCC(C)NCC(C)O` (stereo not given): the survivor count runs as follows: (dose: 150.0 mg/kg/injection, schedule: Q01DX001 (ip), vehicle: acid diluted with saline) 2 of 6; (dose: 300.0 mg/kg/injection, schedule: Q01DX001 (ip), vehicle: acid diluted with saline) 0 of 6.

With `CCN(C(=O)CCl)c1ccccc1C`, the survivor count under setting [10] is given as 0 of 6.

Take `C1=C(N2CCOCC2)CCC(N2CCOCC2)=C1`: the survivor count (dose: 400.0 mg/kg/injection, schedule: Q04DX003 (ip), vehicle: saline) is 6 of 6.

Turning to `CCCCCC/C=C\[N+](=O)[O-]`, the survivor count runs as follows: under setting [6], 0 of 6; under setting [7], 0 of 6.

With `CC(=O)Nc1ccc2ccccc2c1-c1c(NC(C)=O)ccc2ccccc12`, the survivor count (dose: 100.0 mg/kg/injection, schedule: Q04DX002 (ip), vehicle: saline with Tween-80) is 3 of 3.

Take `CN(C)[C@@H]1C(=O)C(C(N)=O)=C(O)[C@@]2(O)C(=O)C3=C(O)c4c(O)cccc4C[C@H]3C[C@@H]12`: the survivor count (dose: 75.0 mg/kg/injection, schedule: Q01DX009 (ip), vehicle: other) was 2 of 6; the survivor count (dose: 100.0 mg/kg/injection, schedule: Q01DX001 (ip), vehicle: other) is recorded as 2 of 6; the survivor count (dose: 115.0 mg/kg/injection, schedule: Q04DX003 (ip), vehicle: other) is on record as 0 of 6; the survivor count (dose: 170.0 mg/kg/injection, schedule: Q04DX003 (ip), vehicle: other) was 0 of 6; the survivor count (dose: 200.0 mg/kg/injection, schedule: Q01DX001 (ip), vehicle: other) is on record as 0 of 6; the survivor count under setting [3] was 1 of 6. The survivor count by setting is: under setting [9], 0 of 6; under setting [4], 0 of 6.

For the compound `Cc1c(NC(=O)CCl)c(=O)n(-c2ccccc2)n1C`, the survivor count (dose: 400.0 mg/kg/injection, schedule: Q01DX009 (ip), vehicle: Klucel (hydroxypropylcellulose) (HPC)) is on record as 3 of 6.

In the case of `O=NN(CCCl)C(=O)NC1CCC(CCl)CC1` (stereo not given), the T/C (dose: 134.0 mg/kg/injection, schedule: Q01DX001 (ip), vehicle: saline with Tween-80) was 144 % of control.

`C#CCOCCC(=O)O`: the survivor count (dose: 400.0 mg/kg/injection, schedule: Q04DX003 (ip), vehicle: acetone) is 0 of 6.

On to `O=S(=O)(O)CS(=O)(=O)O`, for which the survivor count is on record as 1 of 6 under setting [11], 1 of 6 under setting [2], 0 of 6 under setting [3] and 0 of 6 under setting [4].

Consider `COC1=C(N2CC2)C(=O)c2ccccc2C1=O`, for which the survivor count by setting is: (dose: 200.0 mg/kg/injection, schedule: Q04DX003 (ip), vehicle: saline with Tween-80) 4 of 6; (dose: 400.0 mg/kg/injection, schedule: Q04DX003 (ip), vehicle: saline with Tween-80) 0 of 6.

In the case of `O=C(O)CC(O)C(F)(F)C(F)(F)C(F)(F)F` (stereo not given), the survivor count under setting [5] was 5 of 6.

For the compound `COC(COS(=O)(=O)c1ccc(Br)cc1)(c1ccccc1)c1ccccc1`, the survivor count is listed as 3 of 3 (dose: 100.0 mg/kg/injection, schedule: Q01DX009 (ip), vehicle: saline with Tween-80) and 3 of 3 under setting [10].

With `CC1CN1C(=O)OCCOC(=O)N1CC1C` (stereo not given), the T/C runs as follows: (dose: 300.0 mg/kg/injection, schedule: Q01DX Z (ip), vehicle: saline) 136 % of control; (dose: 500.0 mg/kg/injection, schedule: Q01DX001 (ip), vehicle: saline) 127 % of control.

Consider `CCOC(OCC)C(=O)NNC(C)C`, for which the survivor count runs as follows: (dose: 200.0 mg/kg/injection, schedule: Q01DX009 (ip), vehicle: saline) 6 of 6; under setting [5], 1 of 6.

For the compound `CCCC[P+](CCCC)(CCCC)CCCC`, the survivor count under setting [12] is reported as 0 of 4; the survivor count under setting [1] is given as 1 of 4; the survivor count (dose: 50.0 mg/kg/injection, schedule: Q04DX002 (ip), vehicle: Klucel (hydroxypropylcellulose) (HPC)) is given as 0 of 3; the survivor count under setting [11] is listed as 0 of 4; the survivor count under setting [2] was 2 of 4; the survivor count (dose: 100.0 mg/kg/injection, schedule: Q04DX002 (ip), vehicle: Klucel (hydroxypropylcellulose) (HPC)) is listed as 0 of 3. In addition, the survivor count reads like this: under setting [3], 1 of 4; under setting [4], 0 of 4.

On to `CC(=N\O)/C(=N/O)c1ccc(O)cc1`, for which the survivor count is given as 0 of 6 under setting [12]; 0 of 6 (dose: 75.0 mg/kg/injection, schedule: Q01DX001 (ip), vehicle: saline); 0 of 6 under setting [11]; 0 of 6 (dose: 150.0 mg/kg/injection, schedule: Q01DX001 (ip), vehicle: saline); 1 of 6 (dose: 300.0 mg/kg/injection, schedule: Q01DX001 (ip), vehicle: saline).

(Values after PubChem BioAssay AID248 (DTP/NCI, 2004).)
